Record: PubChem BioAssay AID602196 (INSERM, 2012)
Test: 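Modifiers of cisplatin sensitivity in A549 cells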. Cells: human A549 lung cancer cells. Reagents: siRNA pair against human genes. Duration: 48 h transfection before cisplatin; time from cisplatin to read-out not stated. Challenge: cisplatin at a dose killing half of control-siRNA cells; exact dose and duration not given. Read-out: 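Shift in cisplatin death relative to control siRNA, from -50 (all cells die) to +50 (no cells die); siRNAs harmful on their own scored 0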. Reading the numbers: two-siRNA summed score (-2 to +2): higher = both siRNAs protect from cisplatin killing; -2 means both sensitise. Rule for the call: 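Each siRNA scores 0 if harmful alone by LDH or WST-1, otherwise +1 if it reduces and -1 if it increases cisplatin killing; a gene is active when both siRNAs agree (sum +2 or -2)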. Calls: active = both siRNAs shift cisplatin killing the same way; inactive = no consistent shift, or siRNA harmful alone.
In all, the deposit lists about 23,000 reagents; below is a part drawn at random. 455 of all reagents (2%) count as active. 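Active includes both protection and sensitisation; some change values fall well beyond the stated -50 to +50 range.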 Unmarked entries are inactive. The numbers tell different reagents against one gene apart. Further read-outs or replicates are left out here. The record does not give: the amount of reagent.

two-siRNA summed score (-2 to +2), by target gene and reagent
CYP7A1: #1 1
ZFHX4: #1 -1
IMPG2: #1 0
IL17F: #1 0
SUMO1P3: #1 0
LY6K: #1 0
GPC3: #1 0
CERS3: #1 0
DPYSL3: #1 0
LOC439946: #1 0
LOC389271: #1 1
GDA: #1 1
TACR2: #1 0
LOC442280: #1 1
KLC3: #1 0; #2 1
LOC442401: #1 0
CDC27: #1 0
KIAA1639: #1 0
LOC441872: #1 0
TIPIN: #1 0
LINC01483: #1 0
DAND5: #1 0

2 entries from above, arranged by “two-siRNA summed score (-2 to +2)”, descending.
Target gene	reagent	two-siRNA summed score (-2 to +2)
TIPIN	1	0
LINC01483	1	0
